# Values quoted from earlier work as cited in US20170239307A1, “COMPOSITION OF DOXYCYCLINE IN LIPOSOMES FOR THE PREVENTION, IMPROVEMENT AND/OR TREATMENT OF OCULAR PATHOLOGIES” (AGENCIA PÚBLICA EMPRESARIAL SANITARIA HOSPITAL ALTO …, priority 2014, published 2017).
# At least one compound was matched to its structure with a doubt left.
# System: diabetic macular edema
# Details: 5 patients, 100 mg oral 2 times a day for 6 months, vs historic controls; cited from earlier work
structure (smiles),measurement,value
CN(C)c1ccc(O)c2c1C[C@H]1C[C@H]3[C@H](N(C)C)C(O)=C(C(N)=O)C(=O)[C@@]3(O)C(O)=C1C2=O [minocycline],macular thickness,macular thickness dropped significantly
same,visual acuity,visual acuity of said patients improved
